Experimental data: PubChem BioAssay AID1259425 (University of Nebraska Medical Center, 2018)
Assay: 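Seek colon cancer weak points whose silencing resembles KSR1 loss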 (primary screen). Cell system: HCT116 human colon cancer cells. Knock-down reagent: siRNA pool against human genes, 50 nM siRNA. Measurement: 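After 50 nM siRNA pool, branched-DNA assay measures six marker transcripts per well, minus blank, normalised to the geometric mean of two housekeeping transcripts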. Scale: BNIP3L mRNA: higher = more BNIP3L transcript after knockdown; NDRG1 mRNA: higher = more NDRG1 transcript after knockdown.
The whole screen tested about 14,000 reagents; below is a random part of them. Further read-outs or replicates are left out here. The record does not give: the time to read-out.

CDKAL1 (GeneID 54901) [SID364000518]: BNIP3L mRNA, set 1 = 0.1; NDRG1 mRNA, set 1 = 0.462
CGGBP1 (GeneID 8545) [SID363994738]: BNIP3L mRNA, set 1 = 0.224; NDRG1 mRNA, set 1 = -0.0201
SLC34A2 (GeneID 10568) [SID363997235]: BNIP3L mRNA, set 1 = 0.146; NDRG1 mRNA, set 1 = 0.354
DNMT1 (GeneID 1786) [SID363992650]: BNIP3L mRNA, set 1 = 0.209; NDRG1 mRNA, set 1 = 0.264
DRC4 (GeneID 2622) [SID363992740]: BNIP3L mRNA, set 1 = 0.0898; NDRG1 mRNA, set 1 = 0.102
DUSP23 (GeneID 54935) [SID364000557]: BNIP3L mRNA, set 1 = 0.0498; NDRG1 mRNA, set 1 = 0.145
CA6 (GeneID 765) [SID363992500]: BNIP3L mRNA, set 1 = 0.354; NDRG1 mRNA, set 1 = 0.445
CLSTN2 (GeneID 64084) [SID364002357]: BNIP3L mRNA, set 1 = 0.0692; NDRG1 mRNA, set 1 = 0.175
RILPL2 (GeneID 196383) [SID364004642]: BNIP3L mRNA, set 1 = 0.0861; NDRG1 mRNA, set 1 = 0.291
ITIH5 (GeneID 80760) [SID364003361]: BNIP3L mRNA, set 1 = 0.343; NDRG1 mRNA, set 1 = 0.502
ITIH5 (GeneID 80760) [SID364004197]: BNIP3L mRNA, set 1 = 0.287; NDRG1 mRNA, set 1 = 0.323
SP1 (GeneID 6667) [SID364004564]: BNIP3L mRNA, set 1 = 0.104; NDRG1 mRNA, set 1 = 0.114
PDCD7 (GeneID 10081) [SID363996593]: BNIP3L mRNA, set 1 = 0.0393; NDRG1 mRNA, set 1 = 0.667
PHF12 (GeneID 57649) [SID364001883]: BNIP3L mRNA, set 1 = 0.17; NDRG1 mRNA, set 1 = 0.191
SGCE (GeneID 8910) [SID363994975]: BNIP3L mRNA, set 1 = 0.108; NDRG1 mRNA, set 1 = 0.219
COX14 (GeneID 84987) [SID364004264]: BNIP3L mRNA, set 1 = 0.0493; NDRG1 mRNA, set 1 = 0.179
MT-ATP8 (GeneID 4509) [SID364004838]: BNIP3L mRNA, set 1 = 0.0924; NDRG1 mRNA, set 1 = 0.257
POLR2G (GeneID 5436) [SID363993856]: BNIP3L mRNA, set 1 = 0.129; NDRG1 mRNA, set 1 = 0.8
GLS2 (GeneID 27165) [SID363998391]: BNIP3L mRNA, set 1 = 0.114; NDRG1 mRNA, set 1 = 0.128
MAGED2 (GeneID 10916) [SID363998971]: BNIP3L mRNA, set 1 = 0.0591; NDRG1 mRNA, set 1 = 0.226
POLD3 (GeneID 10714) [SID363997382]: BNIP3L mRNA, set 1 = 0.085; NDRG1 mRNA, set 1 = 0.402
LRIG2 (GeneID 9860) [SID364005553]: BNIP3L mRNA, set 1 = 0.111; NDRG1 mRNA, set 1 = 0.0728
IGHV5-78 (GeneID 28387) [SID364004876]: BNIP3L mRNA, set 1 = 0.108; NDRG1 mRNA, set 1 = 0.705
GK2 (GeneID 2712) [SID364004344]: BNIP3L mRNA, set 1 = 0.0704; NDRG1 mRNA, set 1 = 0.0393
SERPINH1 (GeneID 871) [SID363992520]: BNIP3L mRNA, set 1 = 0.0918; NDRG1 mRNA, set 1 = 0.296
STEEP1 (GeneID 63932) [SID364002329]: BNIP3L mRNA, set 1 = 0.0852; NDRG1 mRNA, set 1 = 0.0678
DDAH1 (GeneID 23576) [SID363998082]: BNIP3L mRNA, set 1 = 0.0395; NDRG1 mRNA, set 1 = 0.119
RSRP1 (GeneID 57035) [SID364001605]: BNIP3L mRNA, set 1 = 0.0707; NDRG1 mRNA, set 1 = 0.473
